Results deposited as PubChem BioAssay AID1259425 (University of Nebraska Medical Center, 2018)
Shown is a random part of about 14,000 reagents. The record does not give: the time to read-out.

- Screen: 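Compare each knockdown with KSR1 silencing using changes in marker transcripts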 (primary screen)
- Cell system: HCT116 human colon cancer cells
- Reagent: siRNA pool against human genes, 50 nM siRNA
- Read-out: 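After 50 nM siRNA pool, branched-DNA assay measures six marker transcripts per well, minus blank, normalised to the geometric mean of two housekeeping transcripts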
- Direction: BNIP3L mRNA: higher = more BNIP3L transcript after knockdown; NDRG1 mRNA: higher = more NDRG1 transcript after knockdown; BNIP3 mRNA: higher = more BNIP3 transcript after knockdown; ALDOC mRNA: higher = more ALDOC transcript after knockdown; ACSL5 mRNA: higher = more ACSL5 transcript after knockdown

The opening 2 records, ahead of the listing:
| gene | BNIP3L mRNA, set 1 | NDRG1 mRNA, set 1 | BNIP3 mRNA, set 1 | ALDOC mRNA, set 1 | ACSL5 mRNA, set 1 |
| --- | --- | --- | --- | --- | --- |
| ATP2B2 (GeneID 491) | 0.0861 | 0.299 | 0.199 | 0.0311 | 0.233 |
| GPR21 (GeneID 2844) | 0.558 | 0.865 | 1.54 | 0.125 | 0.231 |

The list itself, from the start:
| gene | BNIP3L mRNA, set 1 | NDRG1 mRNA, set 1 | BNIP3 mRNA, set 1 | ALDOC mRNA, set 1 | ACSL5 mRNA, set 1 |
| --- | --- | --- | --- | --- | --- |
| ATP2B2 (GeneID 491) | 0.0861 | 0.299 | 0.199 | 0.0311 | 0.233 |
| GPR21 (GeneID 2844) | 0.558 | 0.865 | 1.54 | 0.125 | 0.231 |
| CTDP1 (GeneID 9150) | 0.0539 | 0.136 | 0.22 | 0.0271 | 0.165 |
| ATM (GeneID 472) | 0.144 | 0.133 | 0.213 | 0.00424 | 0.151 |
| HTR2B (GeneID 3357) | 0.0562 | 0.107 | 0.225 | 0.026 | 0.084 |
| LPXN (GeneID 9404) | 0.0618 | 0.193 | 0.266 | 0.0092 | 0.177 |
| PRSS33 (GeneID 260429) | 0.254 | 0.071 | 0.308 | 0.0129 | 0.0866 |
| CZIB (GeneID 54987) | 0.113 | 0.355 | 0.383 | 0.0453 | 0.195 |
| ZNF702P (GeneID 79986) | 0.14 | 0.084 | 0.244 | 0.0304 | 0.201 |
| ARSF (GeneID 416) | 0.108 | 0.164 | 0.21 | 0.0262 | 0.105 |
| ATP6V1B2 (GeneID 526) | 0.185 | 0.754 | 0.519 | 0.173 | 0.218 |
| HSPA8 (GeneID 3312) | 0.0449 | 0.104 | 0.202 | 0.0204 | 0.132 |
| CDC42EP2 (GeneID 10435) | 0.0908 | 0.208 | 0.249 | 0.0145 | 0.105 |
| PLPP2 (GeneID 8612) | 0.109 | 0.283 | 0.363 | 0.0456 | 0.256 |
| VPS35 (GeneID 55737) | 0.175 | 0.273 | 0.334 | 0.0546 | 0.271 |
| PPM1A (GeneID 5494) | 0.0433 | 0.0948 | 0.254 | 0.0215 | 0.169 |
| FLG (GeneID 2312) | 0.0859 | 0.486 | 0.32 | 0.0295 | 0.331 |
| RABIF (GeneID 5877) | 0.168 | 0.192 | 0.272 | 0.0317 | 0.15 |
| BAGE2 (GeneID 85319) | 0.202 | 0.43 | 0.293 | 0.0876 | 0.314 |
| KPNA6 (GeneID 23633) | 0.0406 | 0.0652 | 0.261 | 0.0221 | 0.0892 |
